Assay in all cases: two-hybrid
Assay [1] has as its target T1, Schizosaccharomyces pombe Vps25 (Schizosaccharomyces pombe) (UniProt O74967).
T1 sequence: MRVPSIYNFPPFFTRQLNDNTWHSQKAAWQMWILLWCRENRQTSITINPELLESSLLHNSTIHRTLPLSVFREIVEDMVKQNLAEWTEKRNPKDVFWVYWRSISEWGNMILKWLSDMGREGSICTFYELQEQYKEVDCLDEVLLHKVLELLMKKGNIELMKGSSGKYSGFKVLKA

Assay [2] concerns the target Schizosaccharomyces pombe Vps22 (Schizosaccharomyces pombe).
In assay [3] the target is Schizosaccharomyces pombe Vps32 (Schizosaccharomyces pombe).

These are yes or no findings as the source states them, for the method shown. Binding calls can cover weak binding; strength is not graded here. Tags and fused reporters may be left off the sequences shown.

With Schizosaccharomyces pombe Vps22, in assay [1], the binding result is reported as “binds”.

B1: Schizosaccharomyces pombe Vps20 (protein, UniProt O94318 1-226)
chain: MGVNSSKINDKDRSILSIKEQRDKLLRYSKRLEKIEQLEIDIARKCLRDSDKRGALRALKAKKLYSGLITQTYGQLGNIEQLLSTIEFTLIQKDVMFGLQEGTNLIRQLQADMPLERVGRICNDRDEAMSYVDEVNDMLQGRMSRDQEDEIQEELDSLIREQEDEKVKDLEKPGFTPSTGVDVLPSVPLKNAIPSLDESFPKAASVSNTSSAVVIDEELRKDPVLG
Turning to B1, the binding entry in assay [2] and in assay [3] was “binds” throughout.
